Test results taken from doi:10.1101/2025.03.27.645708.
No constants are given. Whether binding was seen depends on the method and setting. In cells and extracts the contact can be indirect. Some results given as binding are weak or reduced against the parent protein; the word gives no strength.

Chains of the proteins cited; added tags and fusions are not shown.
UniProt O00463: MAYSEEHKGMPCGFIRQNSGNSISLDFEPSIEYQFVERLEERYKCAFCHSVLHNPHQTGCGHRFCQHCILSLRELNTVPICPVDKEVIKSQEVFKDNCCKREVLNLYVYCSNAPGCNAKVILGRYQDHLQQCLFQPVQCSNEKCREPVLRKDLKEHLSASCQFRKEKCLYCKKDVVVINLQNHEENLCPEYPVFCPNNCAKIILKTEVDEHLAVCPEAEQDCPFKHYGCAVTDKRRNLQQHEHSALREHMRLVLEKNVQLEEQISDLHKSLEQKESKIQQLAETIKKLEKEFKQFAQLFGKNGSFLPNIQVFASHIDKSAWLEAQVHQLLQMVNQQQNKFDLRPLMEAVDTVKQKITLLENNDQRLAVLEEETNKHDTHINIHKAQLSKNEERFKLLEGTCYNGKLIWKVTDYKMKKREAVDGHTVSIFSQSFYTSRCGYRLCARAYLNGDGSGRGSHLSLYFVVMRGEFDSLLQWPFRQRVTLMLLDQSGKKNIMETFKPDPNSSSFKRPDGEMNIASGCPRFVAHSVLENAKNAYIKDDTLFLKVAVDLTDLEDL
UniProt Q7Z6Z7: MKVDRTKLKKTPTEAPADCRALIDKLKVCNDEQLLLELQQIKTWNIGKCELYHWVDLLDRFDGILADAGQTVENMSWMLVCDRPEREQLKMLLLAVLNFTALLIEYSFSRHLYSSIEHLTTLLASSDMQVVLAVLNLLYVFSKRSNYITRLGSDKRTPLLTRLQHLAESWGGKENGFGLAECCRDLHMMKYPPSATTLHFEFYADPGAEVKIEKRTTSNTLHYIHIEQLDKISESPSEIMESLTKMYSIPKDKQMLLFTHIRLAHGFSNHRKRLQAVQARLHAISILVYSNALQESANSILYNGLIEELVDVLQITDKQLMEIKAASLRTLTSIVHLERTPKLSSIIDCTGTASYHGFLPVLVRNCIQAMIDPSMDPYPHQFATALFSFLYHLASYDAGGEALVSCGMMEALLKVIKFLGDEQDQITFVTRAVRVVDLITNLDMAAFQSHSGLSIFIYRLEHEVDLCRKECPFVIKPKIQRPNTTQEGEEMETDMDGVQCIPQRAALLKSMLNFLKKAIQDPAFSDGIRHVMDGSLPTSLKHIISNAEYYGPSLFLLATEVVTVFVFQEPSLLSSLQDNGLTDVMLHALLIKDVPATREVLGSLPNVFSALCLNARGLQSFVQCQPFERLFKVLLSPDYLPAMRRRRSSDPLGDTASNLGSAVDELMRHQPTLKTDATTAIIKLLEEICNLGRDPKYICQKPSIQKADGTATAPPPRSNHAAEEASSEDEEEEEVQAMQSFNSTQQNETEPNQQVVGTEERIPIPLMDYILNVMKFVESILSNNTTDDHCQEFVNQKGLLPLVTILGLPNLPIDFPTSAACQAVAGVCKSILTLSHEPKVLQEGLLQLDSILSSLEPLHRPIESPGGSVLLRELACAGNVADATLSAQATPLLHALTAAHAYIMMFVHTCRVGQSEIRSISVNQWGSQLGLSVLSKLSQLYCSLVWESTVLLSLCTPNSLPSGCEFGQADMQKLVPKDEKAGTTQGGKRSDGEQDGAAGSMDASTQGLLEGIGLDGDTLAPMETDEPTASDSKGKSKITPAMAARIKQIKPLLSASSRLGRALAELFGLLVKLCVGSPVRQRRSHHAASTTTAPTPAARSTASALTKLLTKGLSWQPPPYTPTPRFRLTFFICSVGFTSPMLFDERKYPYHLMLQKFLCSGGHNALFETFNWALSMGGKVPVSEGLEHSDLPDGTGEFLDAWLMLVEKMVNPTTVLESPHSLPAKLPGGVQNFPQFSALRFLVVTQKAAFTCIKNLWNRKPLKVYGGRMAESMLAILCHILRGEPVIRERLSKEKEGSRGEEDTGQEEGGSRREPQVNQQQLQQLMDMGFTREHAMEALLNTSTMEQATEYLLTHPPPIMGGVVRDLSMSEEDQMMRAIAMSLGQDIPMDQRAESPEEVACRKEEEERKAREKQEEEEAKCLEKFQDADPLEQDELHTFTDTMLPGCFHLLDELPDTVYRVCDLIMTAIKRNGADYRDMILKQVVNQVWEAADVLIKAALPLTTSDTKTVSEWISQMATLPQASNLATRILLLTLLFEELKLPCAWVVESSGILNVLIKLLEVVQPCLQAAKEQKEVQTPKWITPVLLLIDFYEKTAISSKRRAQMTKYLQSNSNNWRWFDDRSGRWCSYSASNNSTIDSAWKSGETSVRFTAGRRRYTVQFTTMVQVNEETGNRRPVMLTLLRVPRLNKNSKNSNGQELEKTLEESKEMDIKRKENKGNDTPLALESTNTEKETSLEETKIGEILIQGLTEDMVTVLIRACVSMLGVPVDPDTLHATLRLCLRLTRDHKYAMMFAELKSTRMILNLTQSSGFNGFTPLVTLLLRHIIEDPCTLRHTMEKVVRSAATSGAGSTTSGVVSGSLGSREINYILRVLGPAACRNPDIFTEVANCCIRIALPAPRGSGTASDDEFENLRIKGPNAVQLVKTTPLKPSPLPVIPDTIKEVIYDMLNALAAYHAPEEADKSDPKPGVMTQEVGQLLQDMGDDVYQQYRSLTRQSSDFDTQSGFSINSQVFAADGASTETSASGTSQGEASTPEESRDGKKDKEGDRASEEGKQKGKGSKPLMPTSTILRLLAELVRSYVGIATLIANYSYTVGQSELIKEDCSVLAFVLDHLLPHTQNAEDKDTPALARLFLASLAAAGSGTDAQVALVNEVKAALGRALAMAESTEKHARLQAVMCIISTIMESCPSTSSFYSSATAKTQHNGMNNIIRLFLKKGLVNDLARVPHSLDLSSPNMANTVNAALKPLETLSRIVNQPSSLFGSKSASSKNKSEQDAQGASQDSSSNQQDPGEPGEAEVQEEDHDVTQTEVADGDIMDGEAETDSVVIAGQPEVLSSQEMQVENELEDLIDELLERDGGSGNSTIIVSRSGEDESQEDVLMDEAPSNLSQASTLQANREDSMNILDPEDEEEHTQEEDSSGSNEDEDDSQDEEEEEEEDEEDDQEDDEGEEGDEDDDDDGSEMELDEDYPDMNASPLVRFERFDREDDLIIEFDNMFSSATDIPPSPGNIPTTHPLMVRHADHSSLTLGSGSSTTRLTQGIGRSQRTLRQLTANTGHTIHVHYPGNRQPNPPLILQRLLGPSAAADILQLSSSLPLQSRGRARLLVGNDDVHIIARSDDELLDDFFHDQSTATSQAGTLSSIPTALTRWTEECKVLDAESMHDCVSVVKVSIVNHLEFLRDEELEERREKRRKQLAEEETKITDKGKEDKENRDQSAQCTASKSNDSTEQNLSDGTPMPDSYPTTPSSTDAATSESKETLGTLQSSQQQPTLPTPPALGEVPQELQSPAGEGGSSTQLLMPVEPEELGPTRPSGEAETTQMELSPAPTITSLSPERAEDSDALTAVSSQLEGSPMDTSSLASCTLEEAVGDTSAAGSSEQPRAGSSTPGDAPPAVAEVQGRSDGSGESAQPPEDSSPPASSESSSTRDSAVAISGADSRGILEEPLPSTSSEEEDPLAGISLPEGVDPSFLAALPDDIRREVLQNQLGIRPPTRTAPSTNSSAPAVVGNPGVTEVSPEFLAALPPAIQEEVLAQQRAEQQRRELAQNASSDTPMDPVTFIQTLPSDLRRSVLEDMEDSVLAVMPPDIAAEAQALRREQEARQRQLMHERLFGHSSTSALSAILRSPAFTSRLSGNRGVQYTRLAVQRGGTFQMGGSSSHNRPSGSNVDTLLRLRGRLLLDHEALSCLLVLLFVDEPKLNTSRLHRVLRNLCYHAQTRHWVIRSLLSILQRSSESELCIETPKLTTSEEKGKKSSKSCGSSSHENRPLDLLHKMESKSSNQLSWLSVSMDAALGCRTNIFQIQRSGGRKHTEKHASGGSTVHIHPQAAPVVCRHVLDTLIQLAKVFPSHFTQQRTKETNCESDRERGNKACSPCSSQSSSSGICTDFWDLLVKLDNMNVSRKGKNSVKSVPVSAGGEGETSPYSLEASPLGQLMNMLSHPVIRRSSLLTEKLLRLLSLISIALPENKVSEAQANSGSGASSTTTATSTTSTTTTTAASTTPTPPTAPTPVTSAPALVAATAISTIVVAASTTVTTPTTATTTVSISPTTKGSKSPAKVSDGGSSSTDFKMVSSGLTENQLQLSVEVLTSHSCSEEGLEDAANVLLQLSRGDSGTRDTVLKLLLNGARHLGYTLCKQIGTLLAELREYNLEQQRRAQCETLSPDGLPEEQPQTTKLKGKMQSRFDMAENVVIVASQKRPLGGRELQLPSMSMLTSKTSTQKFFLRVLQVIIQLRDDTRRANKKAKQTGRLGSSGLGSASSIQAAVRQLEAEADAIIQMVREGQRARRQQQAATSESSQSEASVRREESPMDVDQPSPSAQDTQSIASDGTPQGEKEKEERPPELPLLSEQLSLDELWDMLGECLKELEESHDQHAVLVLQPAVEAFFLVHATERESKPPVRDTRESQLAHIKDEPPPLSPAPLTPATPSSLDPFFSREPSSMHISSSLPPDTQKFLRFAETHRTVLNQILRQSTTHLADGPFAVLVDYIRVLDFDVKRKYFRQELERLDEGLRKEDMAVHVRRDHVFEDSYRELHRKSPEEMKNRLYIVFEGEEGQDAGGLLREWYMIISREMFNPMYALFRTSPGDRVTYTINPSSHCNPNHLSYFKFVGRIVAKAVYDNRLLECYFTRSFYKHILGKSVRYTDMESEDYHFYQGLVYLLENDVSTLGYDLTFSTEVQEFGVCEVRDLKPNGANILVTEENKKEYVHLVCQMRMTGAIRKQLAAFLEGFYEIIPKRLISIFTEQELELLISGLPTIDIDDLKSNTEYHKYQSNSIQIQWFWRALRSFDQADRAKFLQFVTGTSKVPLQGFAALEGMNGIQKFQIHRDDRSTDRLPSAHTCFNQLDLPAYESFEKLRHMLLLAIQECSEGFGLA

Target: FLAG-TRAF5 (UniProt O00463)
Test: co-IP

endogenous Huwe1 (from UniProt Q7Z6Z7 1-4374) (enzyme)
binding: binds
